Experimental data: PubChem BioAssay AID504847 (National Center for Advancing Translational Sciences (NCATS), 2011)
Out of some 400,000 compounds screened, about 3,700 (0.93%) were called active. This list was built around the results that the source calls inconclusive (neither active nor inactive); the mix of calls is not that of the screen. Calls come from the whole dose curve; as a rule, active = well fitted inhibition curve with a large enough effect; inconclusive = small, poorly fitted or top-dose-only effect, or another doubt; inactive = no such curve, though single readings can be large or run the other way. Where the call is inconclusive, the potency comes from a doubtful curve fit.

Chains of the proteins cited; added tags and fusions are not shown. Lines headed by an entry give the natural chain unless they say otherwise; changes in a name come on top.
UniProt P11473: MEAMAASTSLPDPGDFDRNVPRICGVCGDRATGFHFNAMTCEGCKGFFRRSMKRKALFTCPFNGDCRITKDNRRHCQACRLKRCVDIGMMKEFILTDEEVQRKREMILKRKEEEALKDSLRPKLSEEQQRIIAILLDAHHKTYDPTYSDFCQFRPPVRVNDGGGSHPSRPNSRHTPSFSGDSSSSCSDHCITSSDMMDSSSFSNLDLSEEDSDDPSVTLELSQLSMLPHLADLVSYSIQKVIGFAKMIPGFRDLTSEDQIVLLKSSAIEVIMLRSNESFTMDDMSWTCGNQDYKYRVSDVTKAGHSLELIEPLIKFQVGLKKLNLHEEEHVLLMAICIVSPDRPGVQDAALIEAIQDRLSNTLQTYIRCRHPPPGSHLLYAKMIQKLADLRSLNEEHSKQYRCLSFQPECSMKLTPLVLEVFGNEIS

molecular target: Vitamin D3 receptor (Homo sapiens) (UniProt P11473); assay: Inhibitors of the vitamin D receptor (VDR): qHTS; details: VDR-SRC2-3 peptide fluorescence polarization, 2 h; max response, negative = inhibition: active compounds read low
Outline: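 Measured by FP: displacement of SRC2-3 coactivator peptide from VDR by library compounds, following a two-hour ambient incubation.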
% is set by controls: 0 for no effect and ±100 for the full control effect; potency is the fitted concentration of half-maximal effect.

Row | SMILES | Potency | max response, negative = inhibition
1 | Cn1c(=O)c2c([nH]c(=S)n2Cc2ccc(Cl)cc2)n(C)c1=O | active: 79.4 µM | 
2 | Cc1cc(C)c(NC(=O)C(C)N2CCCCCC2)c(C)c1 (centres undefined) | inconclusive: 79.4 µM [inhibitor, partial curve, poor fit] | 
3 | CCCCc1c(C)nc2ccccc2c1SCCC(=O)O |  | inactive: 3.59%
4 | O=C(NC(=S)Nc1cc(S(=O)(=O)N2CCOCC2)ccc1O)c1ccco1 | inconclusive: 100 µM [inhibitor, single point] | 
5 | O=C(CCl)Nc1c2c(nn1-c1ccccc1)CSC2 | inconclusive: 28.2 µM [inhibitor, full curve] | 
6 | CCS(=O)(=O)C1=NSC2=NC(=O)/C(=C\c3ccc(OC(=O)c4ccco4)cc3)C(=N)N21 | inconclusive: 89.1 µM [inhibitor, partial curve] | 
7 | O=C1c2ccc([N+](=O)[O-])cc2S(=O)(=O)N1Cc1ccccc1 |  | inactive: -6.57%
8 | N#Cc1c(-c2ccccc2)cc(-c2ccccc2)nc1SCC(O)CS(=O)(=O)Cc1ccccc1 (centres undefined) | inconclusive: 79.4 µM [inhibitor, partial curve] | 
9 | CCNC(=O)COn1c(SCC(=O)NCC)nc2ccccc2c1=O |  | inactive: 4.97%
10 | C=CCNc1oc(-c2cccc(Cl)c2)nc1C#N | inconclusive: 89.1 µM [inhibitor, single point] | 
11 | CCOc1ccc(C2CC(=O)c3c([nH]c(C(=O)OCCOc4ccccc4)c3C)C2)cc1 (centres undefined) |  | inactive: 10.2%
12 | Cc1cc(Br)ccc1SCC(=O)OCC(=O)NC(C)c1ccccc1 (centres undefined) | inconclusive: 39.8 µM [inhibitor, partial curve, poor fit] | 
13 | CCCCCCCC(=O)N/N=C/c1ccc([N+](=O)[O-])o1 |  | inactive: -0.173%
14 | O=C(c1cnccn1)N1CCC[C@@]2(CCN(c3cccc(-c4ccccc4)c3)C2)C1 | active: 28.2 µM | 
15 | Cc1cc(C)cc(N2C(=O)CSC23C(=O)N(CC(=O)NC2CCCCC2)c2ccccc23)c1 (centres undefined) |  | inactive: 11%
16 | CC1=CC(C)(C)Nc2cc(C)c(C)cc21 |  | inactive: -7.78%
17 | O=C(OCC1OC(n2cc(Br)c(=O)[nH]c2=O)C(Br)C1O)c1ccccc1 (centres undefined) |  | inactive: -18.7%
18 | CCC(C)c1ccc(NC(=O)N2CCOCC2)cc1 (centres undefined) |  | inactive: 10.4%
19 | CC(=O)N(c1nc(CCl)cs1)c1ccc(C)cc1C | inconclusive: 100 µM [inhibitor, partial curve, poor fit] | 
20 | S=c1[nH]c(-c2ccc(Cl)cc2)cs1 | inconclusive: 31.6 µM [inhibitor, partial curve, poor fit] | 
21 | O=C(N/N=C/C(Br)=C\c1ccccc1)c1ccc2nc[nH]c2c1 | inconclusive: 89.1 µM [inhibitor, single point] | 
22 | Cc1cccc(C)c1NC(=O)CSCC(=O)O |  | inactive: -3.79%

Row | SMILES | Potency | max response, negative = inhibition
23 | Cc1ccc(C(=O)N[C@H](C(=O)Nc2cc(Cl)cc(Cl)c2)C(C)C)cc1 | inconclusive: 89.1 µM [inhibitor, partial curve, poor fit] | 
24 | COc1ccccc1/C=N/NC(=O)c1cccc2ccccc12 | active: 79.4 µM | 
25 | Brc1ccc(NC(c2ccccc2)c2ccncc2)cc1 (centres undefined) | inconclusive: 63.1 µM [inhibitor, partial curve, poor fit] | 
26 | O=C(Nc1cc(S(=O)(=O)Nc2ccc(Cl)cc2)ccc1N1CCCCC1)c1ccc(F)cc1 | inconclusive: 63.1 µM [inhibitor, partial curve, poor fit] | 
27 | CC1=NOC(=O)/C1=C\c1ccc(-c2cccc(Cl)c2)o1 | inconclusive: 56.2 µM [inhibitor, partial curve, poor fit] | 
28 | COc1ccc(/C=C(\C#N)C(=O)NCc2ccccc2)cc1O |  | inactive: -13.7%
29 | Cc1noc2ncnc(NCCc3ccccc3)c12 |  | inactive: 4.44%
30 | Cc1ncc(CO)c(/C=N/NC(=S)Nc2ccc(Cl)c(Cl)c2)c1O | inconclusive: 89.1 µM [inhibitor, single point] | 
31 | CN(C)S(=O)(=O)c1cccc(NC(=O)c2cccc(S(=O)(=O)N3CCCCCC3)c2)c1 |  | inactive: -6.11%
32 | CC/C(C)=N/NC(=O)c1[nH]c2ccc(C)cc2c1-c1ccccc1 | inconclusive: 89.1 µM [inhibitor, single point] | 
33 | Cc1nc(Nc2nc3ccccc3o2)nc(C)c1C | inconclusive: 89.1 µM [inhibitor, single point] | 
34 | CN(c1ccc(C(=O)N2CCN(Cc3ccc4c(c3)OCO4)CC2)cc1)S(C)(=O)=O |  | inactive: -4.7%
35 | C/C=C/C=C\C(=O)Nc1cccc(C2=NOC3(C2)C[C@H](C(N)=O)N(C(=O)/C=C/C)C3)c1 (some centres undefined) | inconclusive: 63.1 µM [inhibitor, partial curve, poor fit] | 
36 | O=[N+]([O-])c1ccc(Sc2cccc[n+]2[O-])c2nonc12 | active: 8.91 µM | 
37 | COc1cc(C(=S)N2CCOCC2)ccc1OC(=O)c1cc(OC)c(OC)c(OC)c1 | inconclusive: 44.7 µM [inhibitor, partial curve, poor fit] | 
38 | COc1ccc(S(=O)(=O)N(C(=O)C(C)C)c2ccc3oc(=O)sc3c2)cc1 | active: 79.4 µM | 
39 | COC(=O)N1CCC[C@@]2(CCN(C(c3ccccc3)c3ccccc3)C2)C1 | inconclusive: 79.4 µM [inhibitor, single point] | 
40 | C/C(C/C(C)=C1/SC(=S)NC1=O)=C1\SC(=S)NC1=O | inconclusive: 70.8 µM [inhibitor, partial curve, poor fit] | 
41 | CCc1nn(CC(=O)NC(C)CCc2ccccc2)c(=O)c2cc3occc3n12 (centres undefined) | inconclusive: 39.8 µM [inhibitor, single point] | 
42 | O=C(O)CCC(=O)Nc1ccc(N2CCCCCC2)cc1 | inconclusive: 56.2 µM [inhibitor, single point] | 
43 | COCC(=O)N1CCC[C@@]2(CCN(c3ccccc3)C2)C1 | inconclusive: 70.8 µM [inhibitor, single point] | 
44 | CC(=O)Nc1cccc(C(=O)N/N=C/c2cccc(C)n2)c1 | inconclusive: 31.6 µM [inhibitor, partial curve, poor fit] | 
